Assay results: paper PMC5785340
The exact form of at least one protein or probe is not confirmed. No signal at the amounts used counts as a negative.

target: MaRAP2-4 (Mentha arvensis) (UniProt A0A1Z2X6Y3); assay: EMSA; settings: DIG Gel Shift Kit 2nd Generation (Roche), manufacturer's protocol; pH and temperature not stated; recombinant protein; protein details: GST (pGEX-4T2); label: DIG

Sequence	binding result
AGAAGCCACCAGATAGCCACCTGAGCCACCCT (double strand) [GCC(M)]	no binding
AGAAGCCGCCAGATAGCCGCCTGAGCCGCCCT (double strand)	binds
AGACATGAATTAGATCATGAATTTGCATGAATTCT (double strand) [JARE]	binds
AGACATGCATTAGATCATGCATTTGCATGCATTCT (double strand) [JARE(M)]	no binding
AGAGCCGACAGATGCCGACTGGCCGACCT (double strand) [DRE1]	binds
AGAGCCTACAGATGCCTACTGGCCTACCT (double strand) [DRE1(M)]	no binding
AGATACCGACATAGATTACCGACATTGTACCGACATCT (double strand) [DRE2]	binds
AGATACTGACATAGATTACTGACATTGTACTGACATCT (double strand) [DRE2(M)]	no binding
